# Laboratory results: article PMC11937244
# By UniProt entry, the sequences of proteins in these tests, tags left out. Residues count along the entry.
# UniProt Q92544, residues 24-642: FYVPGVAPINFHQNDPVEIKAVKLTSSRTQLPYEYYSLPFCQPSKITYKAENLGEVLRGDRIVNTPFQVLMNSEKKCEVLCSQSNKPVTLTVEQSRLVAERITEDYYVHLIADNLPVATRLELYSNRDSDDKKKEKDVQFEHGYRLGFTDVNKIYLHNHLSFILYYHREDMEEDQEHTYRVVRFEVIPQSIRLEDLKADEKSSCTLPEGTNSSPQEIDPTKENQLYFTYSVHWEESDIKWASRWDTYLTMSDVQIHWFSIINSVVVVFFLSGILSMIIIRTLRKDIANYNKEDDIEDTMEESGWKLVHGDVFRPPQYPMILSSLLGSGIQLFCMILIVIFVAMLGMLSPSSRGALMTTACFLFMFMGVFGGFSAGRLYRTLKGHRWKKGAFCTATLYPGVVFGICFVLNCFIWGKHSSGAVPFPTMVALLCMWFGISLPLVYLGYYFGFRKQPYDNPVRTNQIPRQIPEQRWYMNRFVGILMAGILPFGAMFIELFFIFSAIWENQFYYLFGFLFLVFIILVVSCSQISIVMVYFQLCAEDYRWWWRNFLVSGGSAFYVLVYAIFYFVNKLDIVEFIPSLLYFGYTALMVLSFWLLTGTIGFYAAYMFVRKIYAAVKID
# UniProt O60568, residues 25-738: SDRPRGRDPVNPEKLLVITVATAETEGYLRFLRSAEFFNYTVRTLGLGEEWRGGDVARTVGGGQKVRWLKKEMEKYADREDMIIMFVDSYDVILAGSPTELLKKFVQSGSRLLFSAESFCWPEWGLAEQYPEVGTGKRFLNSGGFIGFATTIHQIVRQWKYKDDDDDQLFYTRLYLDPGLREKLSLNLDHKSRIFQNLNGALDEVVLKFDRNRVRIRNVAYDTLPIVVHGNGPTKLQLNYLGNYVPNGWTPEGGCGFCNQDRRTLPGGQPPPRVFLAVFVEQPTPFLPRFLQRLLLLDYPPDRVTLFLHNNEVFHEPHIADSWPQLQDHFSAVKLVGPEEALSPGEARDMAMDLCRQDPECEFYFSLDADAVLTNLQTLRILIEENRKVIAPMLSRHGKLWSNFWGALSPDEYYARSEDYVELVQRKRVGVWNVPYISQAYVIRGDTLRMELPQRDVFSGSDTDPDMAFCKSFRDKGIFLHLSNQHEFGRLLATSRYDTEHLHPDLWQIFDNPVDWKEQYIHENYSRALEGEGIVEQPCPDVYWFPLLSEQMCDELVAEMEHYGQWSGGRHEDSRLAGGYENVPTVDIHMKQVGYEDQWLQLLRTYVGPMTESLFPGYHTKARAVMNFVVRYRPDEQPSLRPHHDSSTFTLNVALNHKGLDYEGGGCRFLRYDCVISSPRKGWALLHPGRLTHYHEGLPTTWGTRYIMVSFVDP
# Results are given in words; binding and its absence hold for the method and conditions named. In cells and extracts the contact can be indirect. Some binding calls cover weakened binding; strength is not graded here.
# Target: FLAG-TM9SF4 (UniProt Q92544)
# Assay: co-IP; lysates of CRC cells transfected with FLAG-TM9SF4; IP/Co-IP Kit (Thermo Fisher #88804); lysate with primary antibody at 4 °C for 12 h, then flag beads for 1.5 h at room temperature; western blot
substance,measurement,value
PLOD3 (from UniProt O60568 25-738),binding,binds
